Changes are numbered by the printed parent chain. No constants are given. Whether binding was seen depends on the method and setting. For part of these data: A result given as binding can be weak or reduced; the word gives no strength.
B1: h7G6 (antibody, V domains shown)
VH: QVQLVESGGGVVQPGRSLRLSCAASGIAFNDYTMHWVRRSPDKGLEWVAAISYGGTNKYYADSVKGRFTISRDSSKNTLFLQMDSLRVEDTAVYYCARDSGYRSLLHWGQGTLVTVSS
VL: EIVLTQSPLSLPVTPGEPASISCRSSQSLVHRNGYNYLDWYLQKPGQSPQLLIYMASKRASGVPDRFSGSGSGTEFTLKISRVEAEDVGIYYCMQALQTWTFGQGTKVEVN
B2: h4B2 (antibody, V domains shown)
VH: QVQLQEAGPRLVKPSQTLSVTCTVSGASITIGGYYWSWIRQHPGKGLEWMGYIYSNGRTYYNPSLKSRIAMSIDTSKNQFSLKLTSVTAADTAIYFCAREAWETPLWGQGTLITVSS
VL: DIQMTQSPSSLSASVGDRVTITCQANQDIVNSLNWFQHKPGTAPKVLIYDASKLETGVPSRFSGSGSGTHFTFTISGLQPEDFATYFCQQYENLPHTFGQGTKLEIR
B3: h37D5 (antibody, V domains shown)
VH: EEQLVESGGRLLRPGESLSLSCAAVGFNFGDFGMAWVRQPPGKGLEWVAGINWSGHSTGFVDSMKGRLTISRDSAKSSLFLQMNSLRGEDTAVYYCARVGRLCSGDICDSMGAFDLWGQGTMVTVSS
VL: DIQMTQSPSTLSASIGDRVTITCRASQTIDNWLAWYQQRPGKAPKLLIYQASSLQSGVSSRFRGSGSGTEFTLTITSLQPDDFATYYCQKSNGYSRTFGQGTKVEIK
B4: h12G10 (antibody, human IgG1, V domains shown)
VH: EVQLLESGGRLLRPGGSLSLSCVASGFYFGDFGMSWVRQVPGKGLEWVSGIDWSGRSTGYVDSMKGRLTISRDNDKSSLYLQMNDLRGEDTAVYYCARVGRLCSGDSCDSMGAFDLWGQGTMVTVSS
VL: B3 VL with M4L, R18S, T28N, R39K, K45R, Q50K, Q55G, R61K, S67F, E105D
B5: h32B10 (antibody, V domains shown)
VH: QVQLVQSGAEVKKPGASVKVSCRASGYIFRNFDINWVRQATGQGLEWMGWMSPKSGDTGYAQKFQGRVTMTRDTSINTAYMELSSLTSEDSAVYYCARGVDGTNWGQGTRVTVSS
VL: DIVMTQSPDSLGVSLGERATISCKSSQSILDNSNNKNFIAWFQQKPGQPPKLLIYWASARESGVPDRFSGSGSGTEFTLTINSLQAEDVAVYYCYQYYSTPHTFGQGTKLDLR
B6: h2F8 (antibody, V domains shown)
VH: EVQLVESGGGLVKPGGSLRLSCAASGFIFSDYNMNWVRQAPGKGLEWVSSITRSSRTIYYADSVKGRFTISRDNAKNSLHLQMNSLRDADTAVYYCAREDFDVSTGPYYMDVWGNGTTVIVSS
VL: EIVLTQSPGTLSLSPGERATLSCRASQSVSNMFLVWYQQKPGQAPRLLMYGASTRATDIPDRFSGSGSGTDFTLTISRLEPEDFAVYYCQQNGNSPYTFGQGTKLEIK

Biological target: nCor a 9
Assay: ELISA, antigen-coated plate

Row | binding | Binder
1 | no binding (tested: 1000 ng/ml) | B1
2 | no binding (tested: 1000 ng/ml) | B2
3 | no binding (tested: 1000 ng/ml) | B3
4 | no binding (tested: 1000 ng/ml) | B4
5 | no binding (tested: 1000 ng/ml) | B5
6 | no binding (tested: 1000 ng/ml) | B6

Biological target: rAna3o
Assay: ELISA, antigen-coated plate

Row | binding | Binder
7 | no binding (tested: 1000 ng/ml) | B1
8 | no binding (tested: 1000 ng/ml) | B2
9 | no binding (tested: 1000 ng/ml) | B3
10 | no binding (tested: 1000 ng/ml) | B4
11 | no binding (tested: 1000 ng/ml) | B5
12 | no binding (tested: 1000 ng/ml) | B6

Biological target: rAra h 8 (peanut)
Assay: ELISA, antigen-coated plate

Row | binding | Binder
13 | no binding (tested: 1000 ng/ml) | B1
14 | no binding (tested: 1000 ng/ml) | B2
15 | no binding (tested: 1000 ng/ml) | B3
16 | no binding (tested: 1000 ng/ml) | B4
17 | no binding (tested: 1000 ng/ml) | B5
18 | no binding (tested: 1000 ng/ml) | B6

Biological target: rAra h 9 (peanut)
Assay: ELISA, antigen-coated plate

Row | binding | Binder
19 | no binding (tested: 1000 ng/ml) | B1
20 | no binding (tested: 1000 ng/ml) | B2
21 | no binding (tested: 1000 ng/ml) | B3
22 | no binding (tested: 1000 ng/ml) | B4
23 | no binding (tested: 1000 ng/ml) | B5
24 | no binding (tested: 1000 ng/ml) | B6

Biological target: nAra h 3 (peanut)
Assay: ELISA, antigen-coated plate (FIG. 3)

Row | binding | Binder
25 | binds | B1
26 | binds | B2
27 | binds | B3
28 | binds | B4
29 | binds | B5
30 | binds | B6

Reference: US20200199207A1
